From publication PMC4782999, “The Inhibitory Effect of Non-Substrate and Substrate DNA on the Ligation and Self-Adenylylation Reactions Catalyzed by T4 DNA Ligase”

Sequences of proteins named here, by UniProt entry; tags and fusion partners are left off. A change or cut given only in a name is not applied to a line headed by its entry.
UniProt P00970: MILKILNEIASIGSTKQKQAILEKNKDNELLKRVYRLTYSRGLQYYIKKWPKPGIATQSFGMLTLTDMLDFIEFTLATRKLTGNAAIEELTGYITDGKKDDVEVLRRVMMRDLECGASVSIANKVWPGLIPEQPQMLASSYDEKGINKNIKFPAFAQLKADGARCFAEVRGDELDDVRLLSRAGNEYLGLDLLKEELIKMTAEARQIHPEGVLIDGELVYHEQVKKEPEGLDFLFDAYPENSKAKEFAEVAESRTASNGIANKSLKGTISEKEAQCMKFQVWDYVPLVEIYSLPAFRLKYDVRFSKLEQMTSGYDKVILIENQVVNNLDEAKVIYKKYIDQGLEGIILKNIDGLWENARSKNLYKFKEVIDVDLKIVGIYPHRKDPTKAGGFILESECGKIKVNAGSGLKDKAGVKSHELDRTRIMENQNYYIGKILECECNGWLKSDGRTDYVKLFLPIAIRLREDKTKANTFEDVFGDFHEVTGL

Target: T4 DNA ligase (deadenylylated) (UniProt P00970)
Experiment: EMSA
Conditions: 4 nM DNA, 100-1000 nM ligase, completely bound as ligase increases, 5 mM Mg2+, 1 mM pyrophosphate, no ATP, 5'-phosphate on S2 at nick, 3'-OH on S1, EMSA: 50 mM Tris pH 7.5, 5 mM DTT, 1 mM sodium pyrophosphate, 5% glycerol, room temperature (22 C), 20 min, commercial protein, label: 5'-32P on S2

## GCGCACCCTTACCACCAAGACAGGATCGTCCTTGC / TGATCATGCATCGTTCCACTGTGTCCGCGACATCTACGTC / GACGTAGATGTCGCGGACACAGTGGAACGATGCATGATCAGCAAGGACGATCCTGTCTTGGTGGTAAGGGTGCGC [75mer-ds-nDNA (nicked, 32P)]
  binding result: binds

The exact form of at least one protein or probe is not confirmed.
